Results are given in words; binding and its absence hold for the method and conditions named. Some binding calls cover weakened binding; strength is not graded here. Each block holds one binder with its values, some of them ahead of it.
Assays:
[1] = target: T1, human DGCR2 expressed on HEK293T cells (human, UniProt P98153 21-550); assay: flow cytometry, soluble scFv on transfected HEK293T cells, anti-His PE
T1 construct: Transiently expressed on HEK293T cells from a vector with eGFP downstream of a P2A site; also called human antigen; DiGeorge Syndrom Critical Region 2
T1 sequence: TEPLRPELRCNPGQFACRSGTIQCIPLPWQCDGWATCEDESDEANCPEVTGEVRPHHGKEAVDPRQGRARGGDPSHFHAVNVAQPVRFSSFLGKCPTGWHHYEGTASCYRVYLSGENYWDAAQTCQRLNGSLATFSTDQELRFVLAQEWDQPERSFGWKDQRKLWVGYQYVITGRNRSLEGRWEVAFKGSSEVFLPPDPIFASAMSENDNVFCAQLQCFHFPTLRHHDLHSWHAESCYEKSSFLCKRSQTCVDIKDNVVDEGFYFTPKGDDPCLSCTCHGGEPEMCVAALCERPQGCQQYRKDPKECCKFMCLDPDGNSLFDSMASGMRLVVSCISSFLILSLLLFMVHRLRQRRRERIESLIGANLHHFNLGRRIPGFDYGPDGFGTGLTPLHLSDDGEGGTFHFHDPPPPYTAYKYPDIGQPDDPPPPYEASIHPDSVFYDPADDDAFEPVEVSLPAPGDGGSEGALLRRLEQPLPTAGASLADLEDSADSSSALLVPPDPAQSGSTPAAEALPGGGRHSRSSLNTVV

[2] = target: T2, murine DGCR2 expressed on HEK293T cells (mouse, UniProt P98154 25-548); assay: as above
T2 construct: Transiently expressed on HEK293T cells from a vector with eGFP downstream of a P2A site; also called mouse DGCR2; murine antigen
T2 sequence: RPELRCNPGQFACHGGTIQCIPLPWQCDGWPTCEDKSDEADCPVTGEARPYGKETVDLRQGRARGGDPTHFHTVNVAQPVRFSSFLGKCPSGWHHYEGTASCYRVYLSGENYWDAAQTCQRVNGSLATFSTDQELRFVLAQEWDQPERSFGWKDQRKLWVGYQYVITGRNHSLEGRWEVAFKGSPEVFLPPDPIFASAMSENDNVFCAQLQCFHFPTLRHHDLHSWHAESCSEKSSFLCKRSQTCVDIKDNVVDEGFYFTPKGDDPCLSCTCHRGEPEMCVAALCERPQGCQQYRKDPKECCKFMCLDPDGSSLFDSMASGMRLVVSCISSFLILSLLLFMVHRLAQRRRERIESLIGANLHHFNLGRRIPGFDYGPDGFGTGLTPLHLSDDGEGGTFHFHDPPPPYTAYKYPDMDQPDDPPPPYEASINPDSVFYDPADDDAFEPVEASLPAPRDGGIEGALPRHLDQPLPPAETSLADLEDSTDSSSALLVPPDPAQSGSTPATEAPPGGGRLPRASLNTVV

[3] = target: T1, human DGCR2 expressed on HEK293T cells; assay: flow cytometry, soluble scFv on transfected HEK293T cells (figure legend)
[4] = target: T2, murine DGCR2 expressed on HEK293T cells; assay: as above

binding [1]: binds
binding [2]: binds
binding [3]: binds
binding [4]: binds
B1: UK018-D3 scFv (scFv)
scFv: QVQLVESGGGLVQPGGSLRLSCAASGFTFSSNAMSWVRQAPGKGLEWVSAIGTGGTTYYADSVKGRFTISRDNSKNTLYLQMNSLRAEDTAVYYCAKTGQLDYWGQGTLVTVSSGSASAPKLEEGEFSEARVQSALTQPASVSGSPGQSITISCTGTSSDVGGYNYVSWFQQHPDKAPKLMIYDVSNRPSGVSNRFSGSKSGTSASLAISGLRSEDEADYYCAAWDDSLSGWVFGGGTKLTVLGQPKAAPSVTLFPPSSAAAGSEQKLISEEDLSHHHHHH

binding [1]: binds
binding [2]: binds
binding [3]: binds
binding [4]: binds
B2: UK018-D4 scFv (scFv)
scFv: QVQLVQSGGGLVQPGGSLRLSCAASGFTFSNYAMSWVRQAPGKGLEWVSGISGGGDNTYYTDSVKGRFTISRDNSKNTLYLQMNSLTAEDTALYYCAKKQSGGSGWSLWGFDYWGQGTLVTVSSGSASALKLEEGEFSEARVQAVVTQEPSLTVSPGGTVTLTCASSTGAVTSGYYPSWFQQKPGQAPRPLIYNTNNKHSWSPARFSGSLLGGKAALTLSGVQPEDEADYYCLLYYGGRGVFGGGTRLTVLSQPKAAPSVTLFPPSSAAAGSEQKLISEEDLSHHHHHH
